# Where a chain is given by its changes, count along the chain named.
# B1: 51A1, 72A (protein, listed as Rattus norvegicus)
# chain: AFDGTWKVDRNENYEKFMEKMGINVVKRKLGAHDNLKLTITQEGNKFTVKASSNFRNIDVVFELGVDFAYSAADGTELTGTWTMEGNKLVGKFKRVDNGKELIAVREISGNELIQTYTYEGVEAKRIFKKE
# modifications: PEPTIDE (1)...(131) wild-type rat intestinal fatty acid binding protein
# B2: 55W2, 72A (protein, listed as Rattus norvegicus)
# chain: B1 chain with A51E, F55W
# modifications: PEPTIDE (1)...(131) wild-type rat intestinal fatty acid binding protein
# B3: 51G1, 72A (protein, listed as Rattus norvegicus)
# chain: B1 chain with A51G
# modifications: PEPTIDE (1)...(131) wild-type rat intestinal fatty acid binding protein
# B4: 55Y3, 72A (protein, listed as Rattus norvegicus)
# chain: B1 chain with A51E, F55Y
# modifications: PEPTIDE (1)...(131) wild-type rat intestinal fatty acid binding protein
# B5: 55M1, 72A (protein, listed as Rattus norvegicus)
# chain: B1 chain with A51E, F55M
# modifications: PEPTIDE (1)...(131) wild-type rat intestinal fatty acid binding protein
# B6: 51T3, 72A (protein, listed as Rattus norvegicus)
# chain: B1 chain with A51T
# modifications: PEPTIDE (1)...(131) wild-type rat intestinal fatty acid binding protein
# B7: 51C3, 72A (protein, listed as Rattus norvegicus)
# chain: B1 chain with A51C
# modifications: PEPTIDE (1)...(131) wild-type rat intestinal fatty acid binding protein
# B8: 51D1, 72A (protein, listed as Rattus norvegicus)
# chain: B1 chain with A51D
# modifications: PEPTIDE (1)...(131) wild-type rat intestinal fatty acid binding protein
# B9: 51P3, 72A (protein, listed as Rattus norvegicus)
# chain: B1 chain with A51P
# modifications: PEPTIDE (1)...(131) wild-type rat intestinal fatty acid binding protein
# B10: 51L3, 72A (protein, listed as Rattus norvegicus)
# chain: B1 chain with A51L
# modifications: PEPTIDE (1)...(131) wild-type rat intestinal fatty acid binding protein
# B11: 55A1, 72A (protein, listed as Rattus norvegicus)
# chain: B1 chain with A51E, F55A
# modifications: PEPTIDE (1)...(131) wild-type rat intestinal fatty acid binding protein
# B12: 55L1, 72A (protein, listed as Rattus norvegicus)
# chain: B1 chain with A51E, F55L
# modifications: PEPTIDE (1)...(131) wild-type rat intestinal fatty acid binding protein
# B13: 55H2, 72A (protein, listed as Rattus norvegicus)
# chain: B1 chain with A51E, F55H
# modifications: PEPTIDE (1)...(131) wild-type rat intestinal fatty acid binding protein
# B14: 55R1, 72A (protein, listed as Rattus norvegicus)
# chain: B1 chain with A51E, F55R
# modifications: PEPTIDE (1)...(131) wild-type rat intestinal fatty acid binding protein
# B15: 55T1, 72A (protein, listed as Rattus norvegicus)
# chain: B1 chain with A51E, F55T
# modifications: PEPTIDE (1)...(131) wild-type rat intestinal fatty acid binding protein
# B16: 51K1, 72A (protein, listed as Rattus norvegicus)
# chain: B1 chain with A51K
# modifications: PEPTIDE (1)...(131) wild-type rat intestinal fatty acid binding protein
# B17: 51I1, 72A (protein, listed as Rattus norvegicus)
# chain: B1 chain with A51I
# modifications: PEPTIDE (1)...(131) wild-type rat intestinal fatty acid binding protein
# B18: 55E, 72A (protein, listed as Rattus norvegicus)
# chain: B1 chain with A51E, F55E
# modifications: PEPTIDE (1)...(131) wild-type rat intestinal fatty acid binding protein
# B19: 55D1, 72A (protein, listed as Rattus norvegicus)
# chain: B1 chain with A51E, F55D
# modifications: PEPTIDE (1)...(131) wild-type rat intestinal fatty acid binding protein
# B20: 55S1, 72A (protein, listed as Rattus norvegicus)
# chain: B1 chain with A51E, F55S
# modifications: PEPTIDE (1)...(131) wild-type rat intestinal fatty acid binding protein
# B21: 51S1, 72A (protein, listed as Rattus norvegicus)
# chain: B1 chain with A51S
# modifications: PEPTIDE (1)...(131) wild-type rat intestinal fatty acid binding protein
# B22: 51N1, 72A (protein, listed as Rattus norvegicus)
# chain: B1 chain with A51N
# modifications: PEPTIDE (1)...(131) wild-type rat intestinal fatty acid binding protein
# B23: 55N1, 72A (protein, listed as Rattus norvegicus)
# chain: B1 chain with A51E, F55N
# modifications: PEPTIDE (1)...(131) wild-type rat intestinal fatty acid binding protein
# B24: 51H1, 72A (protein, listed as Rattus norvegicus)
# chain: B1 chain with A51H
# modifications: PEPTIDE (1)...(131) wild-type rat intestinal fatty acid binding protein
# B25: 51W2, 72A (protein, listed as Rattus norvegicus)
# chain: B1 chain with A51W
# modifications: PEPTIDE (1)...(131) wild-type rat intestinal fatty acid binding protein
# B26: 51Y1, 72A (protein, listed as Rattus norvegicus)
# chain: B1 chain with A51Y
# modifications: PEPTIDE (1)...(131) wild-type rat intestinal fatty acid binding protein
# B27: 51Q1, 72A (protein, listed as Rattus norvegicus)
# chain: B1 chain with A51Q
# modifications: PEPTIDE (1)...(131) wild-type rat intestinal fatty acid binding protein
# B28: 55K1, 72A (protein, listed as Rattus norvegicus)
# chain: B1 chain with A51E, F55K
# modifications: PEPTIDE (1)...(131) wild-type rat intestinal fatty acid binding protein
# B29: 51V3, 72A (protein, listed as Rattus norvegicus)
# chain: B1 chain with A51V
# modifications: PEPTIDE (1)...(131) wild-type rat intestinal fatty acid binding protein
# B30: 51R1, 72A (protein, listed as Rattus norvegicus)
# chain: B1 chain with A51R
# modifications: PEPTIDE (1)...(131) wild-type rat intestinal fatty acid binding protein
# B31: 55I1, 72A (protein, listed as Rattus norvegicus)
# chain: B1 chain with A51E, F55I
# modifications: PEPTIDE (1)...(131) wild-type rat intestinal fatty acid binding protein
# B32: 55P1, 72A (protein, listed as Rattus norvegicus)
# chain: B1 chain with A51E, F55P
# modifications: PEPTIDE (1)...(131) wild-type rat intestinal fatty acid binding protein
# B33: 55G1, 72A (protein, listed as Rattus norvegicus)
# chain: B1 chain with A51E, F55G
# modifications: PEPTIDE (1)...(131) wild-type rat intestinal fatty acid binding protein
# B34: 51F1, 72A (protein, listed as Rattus norvegicus)
# chain: B1 chain with A51F
# modifications: PEPTIDE (1)...(131) wild-type rat intestinal fatty acid binding protein
# B35: 55Q1, 72A (protein, listed as Rattus norvegicus)
# chain: B1 chain with A51E, F55Q
# modifications: PEPTIDE (1)...(131) wild-type rat intestinal fatty acid binding protein
# Experiment: Baseline fluorescence ratio Ro of probe in absence of analyte
# Details: average baseline fluorescence ratio Ro of the clone probe; substitutions with respect to SEQ ID NO: 2
row,Molecule,AvgOfRo
1,B1,0.41
2,B2,0.23
3,B3,0.41
4,B4,0.12
5,B5,0.36
6,B6,0.40
7,B7,0.42
8,B8,0.42
9,B9,0.38
10,B10,0.39
11,B11,0.18
12,B12,0.16
13,B13,0.18
14,B14,0.24
15,B15,0.17
16,B16,0.37
17,B17,0.39
18,B18,0.25

row,Molecule,AvgOfRo
1,B19,0.18
2,B20,0.20
3,B21,0.38
4,B22,0.38
5,B23,0.20
6,B24,0.35
7,B25,0.39
8,B26,0.38
9,B27,0.40
10,B28,0.30
11,B29,0.40
12,B30,0.40
13,B31,0.18
14,B32,0.33
15,B33,0.20
16,B34,0.43
17,B35,0.23

# From patent US20060257938A1, “Method of screening for drugs that block ligand binding to a lipid binding protein” (priority 2005, published 2006)
